# Source: patent US12528755B2, “Method of producing bio-derived branched alkyl glyceryl ether, and bio-derived branched alkyl glyceryl ether produced by said method” (ADEKA CORPORATION, priority 2022, dated 2026)
# Some compounds share one wording; it may come from a single statement.
# Test: Evaluation of deodorization property (odor scoring by seven examiners)
# Settings: immediately after production; total score of seven examiners, each 1 to 10 points (10 = completely odorless, 1 = strong odor)
row,SMILES,Evaluation of deodorization property
1,"CCCCC(CC)COCC(O)CO (stereo not shown) [Comparative Example 1, petroleum raw material-derived 2-ethylhexyl glyceryl ether D, reference compound]",×
2,"CCCCC(CC)COCC(O)CO (stereo not shown) [Example 1, bio-derived 2-ethylhexyl glyceryl ether A]","⊚ (when the total score was 60 points or more, the evaluation was ⊚)"
3,"CCCCC(CC)COCC(O)CO (stereo not shown) [Example 2, bio-derived 2-ethylhexyl glyceryl ether B]","⊚ (when the total score was 60 points or more, the evaluation was ⊚)"
4,"CCCCC(CC)COCC(O)CO (stereo not shown) [Example 3, bio-derived 2-ethylhexyl glyceryl ether C]","⊚ (when the total score was 60 points or more, the evaluation was ⊚)"
